These are yes or no findings as the source states them, for the method shown. Some results given as binding are weak or reduced against the parent protein; the word gives no strength.
What was measured:
[1] = molecular target: CD8α Fc fusion protein (UniProt P01732); assay: ELISA on coated CD8α Fc fusion protein
[2] = molecular target: CD8 on MC38-CD8 transplantation tumors and CD8+ humanized tissues of PBMC humanized mice (human) (UniProt P01732); assay: in vivo micro-PET in PBMC humanized mice bearing MC38-CD8 tumours; uptake falls with rising total protein dose
[3] = molecular target: CD8 on MC38-CD8 transplantation tumors and CD8+ humanized tissues of PBMC humanized mice (human) (UniProt P01732); assay: in vivo and ex vivo biodistribution (PET ROI and γ counter) in PBMC humanized mice bearing MC38-CD8 tumours; uptake falls with rising total protein dose

The chains behind the UniProt entries cited, without tags or fusion partners. Where a name states a change or a piece, a line headed by the entry shows the natural chain unless it says otherwise. Residues count along the entry.
UniProt P01732: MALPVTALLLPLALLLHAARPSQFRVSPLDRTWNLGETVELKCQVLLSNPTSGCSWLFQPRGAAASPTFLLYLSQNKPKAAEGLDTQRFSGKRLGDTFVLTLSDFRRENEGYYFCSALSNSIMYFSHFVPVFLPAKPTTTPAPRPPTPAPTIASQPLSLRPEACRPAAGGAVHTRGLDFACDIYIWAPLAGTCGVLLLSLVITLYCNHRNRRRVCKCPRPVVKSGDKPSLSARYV
CD8 on MC38-CD8 transplantation tumors and CD8+ humanized tissues of PBMC humanized mice: residues 22-235 of P01732
CD8α Fc fusion protein: residues 22-182 of P01732

Row | binding [1] | binding [2] | binding [3] | Binder
1 | binds | – | – | C37H-GSC after TCEP reduction (VHH, C-terminal cysteine freed by TCEP reduction) VHH: QVQLVESGGGLVQPGGSLRLSCAASGLTFSDYAIGWFRQAPGKEREGISCIRIYDGNTYYADSVKGRFTISRDNSKNHVYLQMNSLRAEDTAVYYCAAGSYYSCSVYPAYDLDYWGKGTLVTVSS
2 | binds | – | – | NODAGA-GSC-C37H single-domain antibody (VHH, Maleimide-NODAGA conjugated to the cysteine at the C-terminus) VHH: QVQLVESGGGLVQPGGSLRLSCAASGLTFSDYAIGWFRQAPGKEREGISCIRIYDGNTYYADSVKGRFTISRDNSKNHVYLQMNSLRAEDTAVYYCAAGSYYSCSVYPAYDLDYWGKGTLVTVSS
3 | – | binds | binds | ^68Ga-NODAGA-GSC-C37H single-domain antibody (VHH, Maleimide-NODAGA on the C-terminal cysteine, chelating 68Ga) VHH: QVQLVESGGGLVQPGGSLRLSCAASGLTFSDYAIGWFRQAPGKEREGISCIRIYDGNTYYADSVKGRFTISRDNSKNHVYLQMNSLRAEDTAVYYCAAGSYYSCSVYPAYDLDYWGKGTLVTVSS

— US20240327517A1
